The record followed here is patent US20110129459A1.

Results are given in words; binding and its absence hold for the method and conditions named. Some binding calls cover weakened binding; strength is not graded here.

B1: H0L17 (H0-M58 / L17) (antibody, V domains shown)
VH: QVQLVQSGAEVKKPGASVKVSCKASGYTFTGYIMNWVRQAPGQGLEWMGLINPYNGGTSYNQKFKGRVTITADESTSTAYMELSSLRSEDTAVYYCARDGYDDGPYTMDYWGQGTLVTVSS
VL: DIQMTQSPSSLSASVGDRVTITCQASEDIYSFVAWYQQKPGKAPKLLIYNAQTEAQGVPSRFSGSGSGTDFTLTISSLQPEDFATYYCQHHYDSPLTFGGGTKVEIKR
B2: H71L17 (H71-M58 / L17) (antibody, V domains shown)
VH: QVQLVQSGAEVKKPGASVKVSCKASGYTFTGYAMNWVRQAPGQGLEWMGLINPYNGGTDYNPQFQGRVTITADESTSTAYMELSSLRSEDTAVYYCARDGYDDGPYTLETWGQGTLVTVSS
VL: DIQMTQSPSSLSASVGDRVTITCQASEDIYSFVAWYQQKPGKAPKLLIYNAQTEAQGVPSRFSGSGSGTDFTLTISSLQPEDFATYYCQHHYDSPLTFGGGTKVEIKR
B3: H57L17 (H57-M58 / L17) (antibody, V domains shown)
VH: QVQLVQSGAEVKKPGASVKVSCKASGYTFTGYIMNWVRQAPGQGLEWMGLINPYNGGTDYNPQFQGRVTITADESTSTAYMELSSLRSEDTAVYYCARDGYDDGPYTLETWGQGTLVTVSS
VL: DIQMTQSPSSLSASVGDRVTITCQASEDIYSFVAWYQQKPGKAPKLLIYNAQTEAQGVPSRFSGSGSGTDFTLTISSLQPEDFATYYCQHHYDSPLTFGGGTKVEIKR
B4: H97L50 (H97-M58 / L50) (antibody, V domains shown)
VH: QVQLVQSGAEVKKPGASVKVSCKASGYTFTGYIMNWVRQAPGQGLEWMGLINPYNGGTSYNQQFQDRVTITADESTSTAYMELSSLRSEDTAVYYCARDGYDDGPYTLETWGQGTLVTVSS
VL: DIQMTQSPSSLSASVGDRVTITCQASEDIYSFLAWYQQKPGKAPKLLIYNAQTEAQGVPSRFSGSGSGTDFTLTISSLQPEDFATYYCQHHYDSPLTFGGGTKVEIKR
B5: H30L17 (H30-M58 / L17) (antibody, V domains shown)
VH: QVQLVQSGAEVKKPGASVKVSCKASGYTFTGYIMNWVRQAPGQGLEWMGLINPYNGGTDYNPQFQDRVTITADESTSTAYMELSSLRSEDTAVYYCARDGYDDGPYTLETWGQGTLVTVSS
VL: DIQMTQSPSSLSASVGDRVTITCQASEDIYSFVAWYQQKPGKAPKLLIYNAQTEAQGVPSRFSGSGSGTDFTLTISSLQPEDFATYYCQHHYDSPLTFGGGTKVEIKR
B6: Ha111L0 (Ha111-SKSC / L0) (antibody, V domains shown)
VH: QVQLVQSGAEVKKPGASVKVSCKASGYTFTGYILNWVRQAPGQGLEWMGLINPYNGGTSYNQKFKGRVTITADESTSTAYMELSSLRSEDTAVYYCARDGYDDGPYTMDYWGQGTLVTVSS
VL: DIQMTQSPSSLSASVGDRVTITCRTSENIYSFLAWYQQKPGKAPKLLIYNAKTLAKGVPSRFSGSGSGTDFTLTISSLQPEDFATYYCQHHYESPLTFGGGTKVEIKR
B7: H44L17 (H44-M58 / L17) (antibody, V domains shown)
VH: QVQLVQSGAEVKKPGASVKVSCKASGYTFTGYIMNWVRQAPGQGLEWMGLINPYNGGTDYNPQFQDRVTITADKSTSTAYMELSSLRSEDTAVYYCARDGYDDGPYTLETWGQGTLVTVSS
VL: DIQMTQSPSSLSASVGDRVTITCQASEDIYSFVAWYQQKPGKAPKLLIYNAQTEAQGVPSRFSGSGSGTDFTLTISSLQPEDFATYYCQHHYDSPLTFGGGTKVEIKR
B8: Ha219L0 (Ha219-SKSC / L0) (antibody, V domains shown)
VH: QVQLVQSGAEVKKPGASVKVSCKASGYTFTGYIMNWVRQAPGQGLEWMGLINPYNGGTSYNPKFKGRVTITADESTSTAYMELSSLRSEDTAVYYCARDGYDDGPYTMDYWGQGTLVTVSS
VL: DIQMTQSPSSLSASVGDRVTITCRTSENIYSFLAWYQQKPGKAPKLLIYNAKTLAKGVPSRFSGSGSGTDFTLTISSLQPEDFATYYCQHHYESPLTFGGGTKVEIKR
B9: H28L17 (H28-M58 / L17) (antibody, V domains shown)
VH: QVQLVQSGAEVKKPGASVKVSCKASGYTFTGYVLNWVRQAPGQGLEWMGLINPYNGGTDYNPQFQDRVTITADESTSTAYMELSSLRSEDTAVYYCARDGYDDGPYTLETWGQGTLVTVSS
VL: DIQMTQSPSSLSASVGDRVTITCQASEDIYSFVAWYQQKPGKAPKLLIYNAQTEAQGVPSRFSGSGSGTDFTLTISSLQPEDFATYYCQHHYDSPLTFGGGTKVEIKR
B10: H42L17 (H42-M58 / L17) (antibody, V domains shown)
VH: QVQLVQSGAEVKKPGASVKVSCKASGYTFTGYVLNWVRQAPGQGLEWMGLINPYNGGTDYNPQFQDRVTITADKSTSTAYMELSSLRSEDTAVYYCARDGYDDGPYTLETWGQGTLVTVSS
VL: DIQMTQSPSSLSASVGDRVTITCQASEDIYSFVAWYQQKPGKAPKLLIYNAQTEAQGVPSRFSGSGSGTDFTLTISSLQPEDFATYYCQHHYDSPLTFGGGTKVEIKR
B11: H98L50 (H98-M58 / L50) (antibody, V domains shown)
VH: QVQLVQSGAEVKKPGASVKVSCKASGYTFTGYIMNWVRQAPGQGLEWMGLINPYNGGTSYNQQFQDRVTITADKSTSTAYMELSSLRSEDTAVYYCARDGYDDGPYTLETWGQGTLVTVSS
VL: DIQMTQSPSSLSASVGDRVTITCQASEDIYSFLAWYQQKPGKAPKLLIYNAQTEAQGVPSRFSGSGSGTDFTLTISSLQPEDFATYYCQHHYDSPLTFGGGTKVEIKR
B12: H92L17 (H92-M58 / L17) (antibody, V domains shown)
VH: QVQLVQSGAEVKKPGASVKVSCKASGYTFTGYAMNWVRQAPGQGLEWMGLINPYNGGTDYNPQFQGRVTITADKSTSTAYMELSSLRSEDTAVYYCARDGYDDGPYTLETWGQGTLVTVSS
VL: DIQMTQSPSSLSASVGDRVTITCQASEDIYSFVAWYQQKPGKAPKLLIYNAQTEAQGVPSRFSGSGSGTDFTLTISSLQPEDFATYYCQHHYDSPLTFGGGTKVEIKR
B13: Ha101L0 (Ha101-SKSC / L0) (antibody, V domains shown)
VH: QVQLVQSGAEVKKPGASVKVSCKASGYTFTGYVMNWVRQAPGQGLEWMGLINPYNGGTSYNQKFKGRVTITADESTSTAYMELSSLRSEDTAVYYCARDGYDDGPYTMDYWGQGTLVTVSS
VL: DIQMTQSPSSLSASVGDRVTITCRTSENIYSFLAWYQQKPGKAPKLLIYNAKTLAKGVPSRFSGSGSGTDFTLTISSLQPEDFATYYCQHHYESPLTFGGGTKVEIKR
B14: H78L17 (H78-M58 / L17) (antibody, V domains shown)
VH: QVQLVQSGAEVKKPGASVKVSCKASGYTFTGYIMNWVRQAPGQGLEWMGLINPYNGGTDYNPQFQGRVTITADKSTSTAYMELSSLRSEDTAVYYCARDGYDDGPYTLETWGQGTLVTVSS
VL: DIQMTQSPSSLSASVGDRVTITCQASEDIYSFVAWYQQKPGKAPKLLIYNAQTEAQGVPSRFSGSGSGTDFTLTISSLQPEDFATYYCQHHYDSPLTFGGGTKVEIKR
B15: Ha103L0 (Ha103-SKSC / L0) (antibody, V domains shown)
VH: QVQLVQSGAEVKKPGASVKVSCKASGYTFTGYIINWVRQAPGQGLEWMGLINPYNGGTSYNQKFKGRVTITADESTSTAYMELSSLRSEDTAVYYCARDGYDDGPYTMDYWGQGTLVTVSS
VL: DIQMTQSPSSLSASVGDRVTITCRTSENIYSFLAWYQQKPGKAPKLLIYNAKTLAKGVPSRFSGSGSGTDFTLTISSLQPEDFATYYCQHHYESPLTFGGGTKVEIKR
B16: H46L17 (H46-M58 / L17) (antibody, V domains shown)
VH: QVQLVQSGAEVKKPGASVKVSCKASGYTFTGYAMNWVRQAPGQGLEWMGLINPYNGGTDYNPQFQDRVTITADKSTSTAYMELSSLRSEDTAVYYCARDGYDDGPYTLETWGQGTLVTVSS
VL: DIQMTQSPSSLSASVGDRVTITCQASEDIYSFVAWYQQKPGKAPKLLIYNAQTEAQGVPSRFSGSGSGTDFTLTISSLQPEDFATYYCQHHYDSPLTFGGGTKVEIKR
B17: H34L17 (H34-M58 / L17) (antibody, V domains shown)
VH: QVQLVQSGAEVKKPGASVKVSCKASGYTFTGYAMNWVRQAPGQGLEWMGLINPYNGGTDYNPQFQDRVTITADESTSTAYMELSSLRSEDTAVYYCARDGYDDGPYTLETWGQGTLVTVSS
VL: DIQMTQSPSSLSASVGDRVTITCQASEDIYSFVAWYQQKPGKAPKLLIYNAQTEAQGVPSRFSGSGSGTDFTLTISSLQPEDFATYYCQHHYDSPLTFGGGTKVEIKR
B18: Ha204L0 (Ha204-SKSC / L0) (antibody, V domains shown)
VH: QVQLVQSGAEVKKPGASVKVSCKASGYTFTGYIMNWVRQAPGQGLEWMGLINPYNGGTDYNQKFKGRVTITADESTSTAYMELSSLRSEDTAVYYCARDGYDDGPYTMDYWGQGTLVTVSS
VL: DIQMTQSPSSLSASVGDRVTITCRTSENIYSFLAWYQQKPGKAPKLLIYNAKTLAKGVPSRFSGSGSGTDFTLTISSLQPEDFATYYCQHHYESPLTFGGGTKVEIKR
B19: Hp3Lp15 (Hp3-SKSC / Lp15) (antibody, V domains shown)
VH: QVQLVQSGAEVKKPGASVKVSCKASGYTFTGYIMNWVRQAPGQGLEWMGLINPYNGGTSYNQQFQDRVTITADESTSTAYMELSSLRSEDTAVYYCARDGYDDGPYTMDYWGQGTLVTVSS
VL: DIQMTQSPSSLSASVGDRVTITCQTSEDIYSFLAWYQQKPGKAPKLLIYNAQTEAQGVPSRFSGSGSGTDFTLTISSLQPEDFATYYCQHHYESPLTFGGGTKVEIKR

For this experiment, the target named is T1, rhNR10 (recombinant human NR10) (human) (UniProt Q8NI17).
T1 sequence: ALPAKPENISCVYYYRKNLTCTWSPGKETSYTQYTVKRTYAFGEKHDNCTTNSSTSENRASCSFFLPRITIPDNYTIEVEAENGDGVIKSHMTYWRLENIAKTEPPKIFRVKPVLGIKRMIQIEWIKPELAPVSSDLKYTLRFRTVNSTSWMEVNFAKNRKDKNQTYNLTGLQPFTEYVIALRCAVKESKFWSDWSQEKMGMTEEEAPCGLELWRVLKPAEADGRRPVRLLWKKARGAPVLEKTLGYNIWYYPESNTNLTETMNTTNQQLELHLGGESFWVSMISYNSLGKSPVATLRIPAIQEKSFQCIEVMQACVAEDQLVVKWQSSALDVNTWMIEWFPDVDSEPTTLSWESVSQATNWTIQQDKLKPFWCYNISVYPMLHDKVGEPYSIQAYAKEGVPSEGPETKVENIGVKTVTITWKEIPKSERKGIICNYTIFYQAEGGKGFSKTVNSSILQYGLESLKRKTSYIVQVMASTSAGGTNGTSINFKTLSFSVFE
The experiment in a line: SPR, Biacore T100; antibody captured on Protein A, rhNR10 as analyte. For orientation: SPR reads the build-up and loss of mass on a sensor chip optically.
On to B1, for which the binding result was “binds”.
Regarding B2, the binding result is given as “binds”.
To B3 belongs “binds”.
Consider B4, for which the binding entry is given as “binds”.
Regarding B5, the binding entry is listed as “binds”.
To B6 belongs “binds”; to B7, “binds”; to B8, “binds”.
Turning to B9, the binding entry is on record as “binds”.
To B10 belongs “binds”; to B11, “binds”.
In the case of B12, the binding result is listed as “binds”.
On to B13, for which the binding result is “binds”.
Consider B14, for which the binding result was “binds”.
As to B15, the binding entry is reported as “binds”.
B16: the binding result is on record as “binds”.
In the case of B17, the binding entry was “binds”.
Take B18: the binding entry is given as “binds”.
Regarding B19, the binding entry is “binds”.
